Results: the supplement of paper PMC8728848
The other results are listed elsewhere or left out.

Legend:
Assay in all cases: glycan array binding signal (z-score within array); higher = stronger binding
Settings in all cases: glycan notation: IUPAC condensed, linker removed
[1] = target: Fuc(a1-2)[Gal(a1-3)]Gal(b1-4)GlcNAc(b1-2)Man(a1-3)[Fuc(a1-2)[Gal(a1-3)]Gal(b1-4)GlcNAc(b1-2)Man(a1-6)]Man(b1-4)GlcNAc(b1-4)[Fuc(a1-6)]GlcNAc
How it was run: (§1)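 The Consortium for Functional Glycomics database supplied 3228 glycan arrays, of which those lacking an available protein sequence were dropped. The binding signal, a within-array Z-score, was averaged across arrays of the same protein sequence and across linkers. Negative scores can be read as non-binding.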

[2] = target: Fuc(a1-2)[Gal(a1-3)]Gal(b1-4)GlcNAc(b1-3)GalNAc
How it was run: as §1

[3] = target: Fuc(a1-2)[Gal(a1-3)]Gal(b1-4)GlcNAc(b1-6)GalNAc
How it was run: as §1

[4] = target: Fuc(a1-2)[Gal(a1-3)]Gal(b1-4)[Fuc(a1-3)]Glc
How it was run: as §1

[5] = target: Fuc(a1-2)[Gal(a1-3)]Gal(b1-4)[Fuc(a1-3)]GlcNAc
How it was run: as §1

[6] = target: Fuc(a1-2)[Gal(a1-3)]Gal(b1-4)[Fuc(a1-3)]GlcNAc(b1-3)GalNAc
How it was run: as §1

[7] = target: Fuc(a1-2)[Gal(a1-4)]Gal(b1-4)GlcNAc
How it was run: as §1

[8] = target: Fuc(a1-2)[GalNAc(a1-3)]Gal
How it was run: as §1

[9] = target: Fuc(a1-2)[GalNAc(a1-3)]Gal(b1-3)GalNAc(a1-3)[Fuc(a1-2)]Gal(b1-4)GlcNAc
How it was run: as §1

[10] = target: Fuc(a1-2)[GalNAc(a1-3)]Gal(b1-3)GalNAc(b1-3)Gal(a1-4)Gal(b1-4)Glc
How it was run: as §1

[11] = target: Fuc(a1-2)[GalNAc(a1-3)]Gal(b1-3)GlcNAc
How it was run: as §1

[12] = target: Fuc(a1-2)[GalNAc(a1-3)]Gal(b1-3)GlcNAc(b1-2)Man(a1-3)[Fuc(a1-2)[GalNAc(a1-3)]Gal(b1-3)GlcNAc(b1-2)Man(a1-6)]Man(b1-4)GlcNAc(b1-4)GlcNAc
How it was run: as §1

[13] = target: Fuc(a1-2)[GalNAc(a1-3)]Gal(b1-3)GlcNAc(b1-2)Man(a1-3)[Fuc(a1-2)[GalNAc(a1-3)]Gal(b1-3)GlcNAc(b1-2)Man(a1-6)]Man(b1-4)GlcNAc(b1-4)[Fuc(a1-6)]GlcNAc
How it was run: as §1

[14] = target: Fuc(a1-2)[GalNAc(a1-3)]Gal(b1-3)GlcNAc(b1-3)GalNAc
How it was run: as §1

[15] = target: Fuc(a1-2)[GalNAc(a1-3)]Gal(b1-3)GlcNAc(b1-6)GalNAc
How it was run: as §1

[16] = target: Fuc(a1-2)[GalNAc(a1-3)]Gal(b1-4)Glc
How it was run: as §1

[17] = target: Fuc(a1-2)[GalNAc(a1-3)]Gal(b1-4)GlcNAc
How it was run: as §1

[18] = target: Fuc(a1-2)[GalNAc(a1-3)]Gal(b1-4)GlcNAc(b1-2)Man
How it was run: as §1

[19] = target: Fuc(a1-2)[GalNAc(a1-3)]Gal(b1-4)GlcNAc(b1-2)Man(a1-3)[Fuc(a1-2)[GalNAc(a1-3)]Gal(b1-4)GlcNAc(b1-2)Man(a1-6)]Man(b1-4)GlcNAc(b1-4)GlcNAc
How it was run: as §1

[20] = target: Fuc(a1-2)[GalNAc(a1-3)]Gal(b1-4)GlcNAc(b1-2)Man(a1-3)[Fuc(a1-2)[GalNAc(a1-3)]Gal(b1-4)GlcNAc(b1-2)Man(a1-6)]Man(b1-4)GlcNAc(b1-4)[Fuc(a1-6)]GlcNAc
How it was run: as §1

[21] = target: Fuc(a1-2)[GalNAc(a1-3)]Gal(b1-4)GlcNAc(b1-3)Gal(b1-4)GlcNAc
How it was run: as §1

[22] = target: Fuc(a1-2)[GalNAc(a1-3)]Gal(b1-4)GlcNAc(b1-3)Gal(b1-4)GlcNAc(b1-3)Gal(b1-4)GlcNAc
How it was run: as §1

[23] = target: Fuc(a1-2)[GalNAc(a1-3)]Gal(b1-4)GlcNAc(b1-3)GalNAc
How it was run: as §1

[24] = target: Fuc(a1-2)[GalNAc(a1-3)]Gal(b1-4)GlcNAc(b1-3)[Fuc(a1-2)[GalNAc(a1-3)]Gal(b1-4)GlcNAc(b1-6)]GalNAc
How it was run: as §1

[25] = target: Fuc(a1-2)[GalNAc(a1-3)]Gal(b1-4)GlcNAc(b1-6)GalNAc
How it was run: as §1

[26] = target: Fuc(a1-2)[GalNAc(a1-3)]Gal(b1-4)[Fuc(a1-3)]GlcNAc
How it was run: as §1

[27] = target: Fuc(a1-2)[GalNAc(a1-3)]Gal(b1-4)[Fuc(a1-3)]GlcNAc(b1-3)GalNAc
How it was run: as §1

[28] = target: Fuc(a1-2)[GalNAc(a1-4)]Gal(b1-4)GlcNAc
How it was run: as §1

[29] = target: Fuc(a1-2)[GalNAc(b1-3)]Gal
How it was run: as §1

[30] = target: Fuc(a1-3)GlcNAc
How it was run: as §1

B1: Blon0732mut (Bifidobacterium longum) (protein)
chain: MPTSEHKADDATRHLTLIPAPVTLEYTHGTALIGPLVTIEDADQSWETLPIEQLSDELRHRYGVTVLRRRTHGTVISLGLDSRLAHDEYTLDVSESEGIRVRGGGESGLRYGLQTLRQIIGQTSRAIPCLHIQDKPAFAVRAYSLDVTRGRVPTMEFLTWFVDQLALYKYNQFQLYVEHAFAFVELSEAWRGTDPLTAADITYLDEYCARRGIELVPSLATFGHMYMNLRTREHRGLGEFPEDADRPFSFIERMEHHTLNAADPKAHDFASRLIEEYAPLFRSKSFNIGGNETFDLGRGRSAQDAPEAGRDELYAGFVRDLCETLARHGRQPMLWADIALESPRTMDLLPGDITMLNWMYEPQIDESKIQTIATQGRRQFVCPAVRAWSRFFPDYAGAWLNTYHMALAGTKYDAEGMVVTDWGDYGHVNDPRLSVPGLCYGAQNAWNPIEIDAHEMNRRISALVYGDESGRIMDCLARIDSDGVSFPWDLAVQVLELEYGSGTGALNMDVAACMERSSGGKLTLDRTLGCDDARRRMLQWNRERIERRRDCDQVLRDCGDAFAGLDKGGLTAEFLSVMLDGQRLFNELGEELLALADGKDVGSGANRLAADLELWFERYRAQWLSVGRHAELARIAHVVWSLADILRRGAL
glycan array binding signal (z-score) [1]: -0.644
glycan array binding signal (z-score) [2]: -0.533
glycan array binding signal (z-score) [3]: 0.06
glycan array binding signal (z-score) [4]: 0.392
glycan array binding signal (z-score) [5]: -0.131
glycan array binding signal (z-score) [6]: -0.971
glycan array binding signal (z-score) [7]: 1.94
glycan array binding signal (z-score) [8]: -0.124
glycan array binding signal (z-score) [9]: -0.026
glycan array binding signal (z-score) [10]: -1.01
glycan array binding signal (z-score) [11]: -0.382
glycan array binding signal (z-score) [12]: -0.632
glycan array binding signal (z-score) [13]: 0.408
glycan array binding signal (z-score) [14]: -0.538
glycan array binding signal (z-score) [15]: -0.809
glycan array binding signal (z-score) [16]: -0.005
glycan array binding signal (z-score) [17]: 0.684
glycan array binding signal (z-score) [18]: -1.17
glycan array binding signal (z-score) [19]: 0.397
glycan array binding signal (z-score) [20]: -0.011
glycan array binding signal (z-score) [21]: -0.48
glycan array binding signal (z-score) [22]: 0.035
glycan array binding signal (z-score) [23]: -1.2
glycan array binding signal (z-score) [24]: -0.86
glycan array binding signal (z-score) [25]: -0.326
glycan array binding signal (z-score) [26]: 1.44
glycan array binding signal (z-score) [27]: 1.75
glycan array binding signal (z-score) [28]: -0.527
glycan array binding signal (z-score) [29]: 0.44
glycan array binding signal (z-score) [30]: -0.438
